log2 fold change data for 25 targets are collected here from the supplement of paper PMC10849652.

Sequences of proteins named here, by UniProt entry; tags and fusion partners are left off. A change or cut given only in a name is not applied to a line headed by its entry.
UniProt Q9Y255: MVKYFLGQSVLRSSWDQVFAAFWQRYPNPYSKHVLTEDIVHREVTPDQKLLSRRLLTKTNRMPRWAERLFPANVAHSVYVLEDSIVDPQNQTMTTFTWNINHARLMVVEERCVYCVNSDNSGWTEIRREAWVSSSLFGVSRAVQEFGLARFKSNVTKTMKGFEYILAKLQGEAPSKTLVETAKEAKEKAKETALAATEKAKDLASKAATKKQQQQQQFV
UniProt P78527, whole entry, looked up: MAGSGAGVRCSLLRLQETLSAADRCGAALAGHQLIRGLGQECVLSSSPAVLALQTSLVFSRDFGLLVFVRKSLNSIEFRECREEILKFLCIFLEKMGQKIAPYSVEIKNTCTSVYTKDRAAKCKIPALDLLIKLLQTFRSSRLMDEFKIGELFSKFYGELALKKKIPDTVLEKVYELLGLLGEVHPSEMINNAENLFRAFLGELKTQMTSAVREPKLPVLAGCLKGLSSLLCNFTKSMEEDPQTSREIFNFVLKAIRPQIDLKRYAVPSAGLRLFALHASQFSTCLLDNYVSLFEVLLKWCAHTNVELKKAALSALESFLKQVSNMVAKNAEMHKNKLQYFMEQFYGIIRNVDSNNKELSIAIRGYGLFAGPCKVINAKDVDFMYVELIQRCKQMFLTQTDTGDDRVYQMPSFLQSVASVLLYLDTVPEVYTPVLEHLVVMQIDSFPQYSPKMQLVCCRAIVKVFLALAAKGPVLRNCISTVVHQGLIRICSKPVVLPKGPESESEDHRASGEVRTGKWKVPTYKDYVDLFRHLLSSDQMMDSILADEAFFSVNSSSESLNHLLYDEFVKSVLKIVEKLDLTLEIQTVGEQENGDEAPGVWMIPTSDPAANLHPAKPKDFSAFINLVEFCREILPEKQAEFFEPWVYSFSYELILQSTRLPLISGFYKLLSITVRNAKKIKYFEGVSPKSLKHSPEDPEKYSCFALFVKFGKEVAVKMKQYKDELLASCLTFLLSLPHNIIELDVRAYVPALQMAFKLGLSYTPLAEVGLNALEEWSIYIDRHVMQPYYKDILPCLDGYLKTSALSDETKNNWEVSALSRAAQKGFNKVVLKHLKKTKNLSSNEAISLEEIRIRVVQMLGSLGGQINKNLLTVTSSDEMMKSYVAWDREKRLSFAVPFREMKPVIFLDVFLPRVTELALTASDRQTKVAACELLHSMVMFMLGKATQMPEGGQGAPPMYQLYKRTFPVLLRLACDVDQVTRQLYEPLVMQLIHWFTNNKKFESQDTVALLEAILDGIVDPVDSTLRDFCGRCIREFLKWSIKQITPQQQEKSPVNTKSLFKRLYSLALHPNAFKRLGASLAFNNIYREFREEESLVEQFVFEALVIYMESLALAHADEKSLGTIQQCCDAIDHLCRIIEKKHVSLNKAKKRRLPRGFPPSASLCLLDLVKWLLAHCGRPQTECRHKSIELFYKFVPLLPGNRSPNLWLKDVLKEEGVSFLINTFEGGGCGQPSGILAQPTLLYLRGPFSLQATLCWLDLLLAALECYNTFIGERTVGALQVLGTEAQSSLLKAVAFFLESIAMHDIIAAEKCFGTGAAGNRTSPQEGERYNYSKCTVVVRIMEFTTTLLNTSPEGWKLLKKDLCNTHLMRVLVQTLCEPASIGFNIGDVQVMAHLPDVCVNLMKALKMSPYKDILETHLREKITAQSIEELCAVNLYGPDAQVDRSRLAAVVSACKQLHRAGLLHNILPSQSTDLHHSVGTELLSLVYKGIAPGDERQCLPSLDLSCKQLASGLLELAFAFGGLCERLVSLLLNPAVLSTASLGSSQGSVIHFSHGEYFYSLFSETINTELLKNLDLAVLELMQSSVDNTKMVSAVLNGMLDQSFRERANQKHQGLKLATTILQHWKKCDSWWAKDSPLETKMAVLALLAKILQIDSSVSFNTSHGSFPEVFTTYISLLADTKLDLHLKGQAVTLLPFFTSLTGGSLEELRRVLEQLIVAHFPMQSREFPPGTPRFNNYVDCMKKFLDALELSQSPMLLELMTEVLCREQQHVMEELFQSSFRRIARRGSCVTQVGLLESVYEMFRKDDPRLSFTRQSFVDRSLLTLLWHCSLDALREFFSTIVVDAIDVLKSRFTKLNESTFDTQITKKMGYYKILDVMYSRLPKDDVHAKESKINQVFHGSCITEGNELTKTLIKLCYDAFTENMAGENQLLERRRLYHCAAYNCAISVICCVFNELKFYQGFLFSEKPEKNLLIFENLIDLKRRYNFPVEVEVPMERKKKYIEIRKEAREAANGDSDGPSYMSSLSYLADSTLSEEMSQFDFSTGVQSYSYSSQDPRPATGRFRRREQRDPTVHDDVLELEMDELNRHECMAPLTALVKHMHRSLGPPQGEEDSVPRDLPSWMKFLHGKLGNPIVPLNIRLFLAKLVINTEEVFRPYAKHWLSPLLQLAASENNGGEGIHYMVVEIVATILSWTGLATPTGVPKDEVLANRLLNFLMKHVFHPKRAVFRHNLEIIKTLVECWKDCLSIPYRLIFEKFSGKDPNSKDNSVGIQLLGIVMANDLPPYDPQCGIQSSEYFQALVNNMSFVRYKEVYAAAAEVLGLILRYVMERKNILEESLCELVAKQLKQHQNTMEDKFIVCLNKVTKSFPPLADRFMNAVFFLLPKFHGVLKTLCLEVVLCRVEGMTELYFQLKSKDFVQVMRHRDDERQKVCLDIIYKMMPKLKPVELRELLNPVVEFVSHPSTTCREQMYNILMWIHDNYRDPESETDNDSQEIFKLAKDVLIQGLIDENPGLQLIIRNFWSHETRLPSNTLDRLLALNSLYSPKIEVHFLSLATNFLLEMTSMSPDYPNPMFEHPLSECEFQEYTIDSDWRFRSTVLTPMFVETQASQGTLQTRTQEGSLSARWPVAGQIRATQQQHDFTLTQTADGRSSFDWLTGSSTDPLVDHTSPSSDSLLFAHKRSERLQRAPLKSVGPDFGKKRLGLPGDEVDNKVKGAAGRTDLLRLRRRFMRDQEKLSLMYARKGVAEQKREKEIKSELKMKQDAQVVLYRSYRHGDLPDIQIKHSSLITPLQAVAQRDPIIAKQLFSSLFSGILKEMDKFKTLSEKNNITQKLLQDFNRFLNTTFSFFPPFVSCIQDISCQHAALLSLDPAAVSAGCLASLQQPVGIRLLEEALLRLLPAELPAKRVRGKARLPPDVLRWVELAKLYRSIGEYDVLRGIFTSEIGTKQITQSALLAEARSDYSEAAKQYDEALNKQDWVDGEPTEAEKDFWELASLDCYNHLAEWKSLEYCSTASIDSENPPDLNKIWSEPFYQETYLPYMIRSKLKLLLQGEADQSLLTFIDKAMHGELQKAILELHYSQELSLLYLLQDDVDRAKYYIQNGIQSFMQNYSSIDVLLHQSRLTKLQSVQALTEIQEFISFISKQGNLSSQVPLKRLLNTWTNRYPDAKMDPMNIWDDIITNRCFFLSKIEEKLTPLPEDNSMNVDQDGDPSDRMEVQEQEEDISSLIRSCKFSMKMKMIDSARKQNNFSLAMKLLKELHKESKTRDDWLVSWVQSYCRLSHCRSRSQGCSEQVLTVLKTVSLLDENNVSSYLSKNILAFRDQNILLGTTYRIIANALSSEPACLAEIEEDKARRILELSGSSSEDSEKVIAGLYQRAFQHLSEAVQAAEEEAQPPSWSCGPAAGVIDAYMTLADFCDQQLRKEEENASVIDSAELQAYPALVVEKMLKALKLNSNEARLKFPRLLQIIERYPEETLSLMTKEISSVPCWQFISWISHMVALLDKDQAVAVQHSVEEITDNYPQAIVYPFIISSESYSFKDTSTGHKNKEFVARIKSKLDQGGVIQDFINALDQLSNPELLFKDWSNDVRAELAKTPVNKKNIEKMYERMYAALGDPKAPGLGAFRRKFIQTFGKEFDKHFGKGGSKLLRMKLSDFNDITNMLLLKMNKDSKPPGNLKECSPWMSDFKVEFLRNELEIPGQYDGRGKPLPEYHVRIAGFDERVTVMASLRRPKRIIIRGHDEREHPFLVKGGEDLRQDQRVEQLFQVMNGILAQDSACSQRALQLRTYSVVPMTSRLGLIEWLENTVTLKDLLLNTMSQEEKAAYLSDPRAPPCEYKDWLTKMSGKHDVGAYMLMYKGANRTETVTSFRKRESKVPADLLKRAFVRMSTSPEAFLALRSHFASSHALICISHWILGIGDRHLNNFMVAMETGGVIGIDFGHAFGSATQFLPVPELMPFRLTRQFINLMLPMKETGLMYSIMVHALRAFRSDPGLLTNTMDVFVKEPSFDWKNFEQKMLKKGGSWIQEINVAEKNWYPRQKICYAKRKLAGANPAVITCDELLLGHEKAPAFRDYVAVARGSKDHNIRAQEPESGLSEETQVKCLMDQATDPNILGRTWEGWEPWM
UniProt Q5H9R7: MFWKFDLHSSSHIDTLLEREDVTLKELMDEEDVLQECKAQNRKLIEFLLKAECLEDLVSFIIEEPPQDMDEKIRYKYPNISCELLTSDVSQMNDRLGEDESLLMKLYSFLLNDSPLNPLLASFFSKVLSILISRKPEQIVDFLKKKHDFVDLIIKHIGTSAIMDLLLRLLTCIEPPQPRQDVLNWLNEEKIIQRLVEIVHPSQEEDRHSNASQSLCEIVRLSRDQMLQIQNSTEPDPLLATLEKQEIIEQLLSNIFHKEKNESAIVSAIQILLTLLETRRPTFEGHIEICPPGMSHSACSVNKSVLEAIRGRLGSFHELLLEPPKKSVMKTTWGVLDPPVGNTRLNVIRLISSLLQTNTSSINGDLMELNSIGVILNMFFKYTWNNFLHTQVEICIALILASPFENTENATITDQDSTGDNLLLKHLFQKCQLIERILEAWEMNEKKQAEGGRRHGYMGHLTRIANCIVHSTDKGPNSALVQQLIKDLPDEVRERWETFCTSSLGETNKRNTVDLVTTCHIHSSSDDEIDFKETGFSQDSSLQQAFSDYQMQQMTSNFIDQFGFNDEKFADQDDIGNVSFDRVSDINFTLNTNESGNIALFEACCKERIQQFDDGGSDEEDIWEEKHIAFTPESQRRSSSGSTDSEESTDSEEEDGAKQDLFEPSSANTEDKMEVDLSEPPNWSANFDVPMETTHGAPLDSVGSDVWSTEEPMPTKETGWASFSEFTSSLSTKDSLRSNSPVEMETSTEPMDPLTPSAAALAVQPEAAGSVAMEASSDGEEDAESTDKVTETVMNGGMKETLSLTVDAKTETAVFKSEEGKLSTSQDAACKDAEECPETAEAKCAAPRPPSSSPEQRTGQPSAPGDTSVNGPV
UniProt Q8WUF5: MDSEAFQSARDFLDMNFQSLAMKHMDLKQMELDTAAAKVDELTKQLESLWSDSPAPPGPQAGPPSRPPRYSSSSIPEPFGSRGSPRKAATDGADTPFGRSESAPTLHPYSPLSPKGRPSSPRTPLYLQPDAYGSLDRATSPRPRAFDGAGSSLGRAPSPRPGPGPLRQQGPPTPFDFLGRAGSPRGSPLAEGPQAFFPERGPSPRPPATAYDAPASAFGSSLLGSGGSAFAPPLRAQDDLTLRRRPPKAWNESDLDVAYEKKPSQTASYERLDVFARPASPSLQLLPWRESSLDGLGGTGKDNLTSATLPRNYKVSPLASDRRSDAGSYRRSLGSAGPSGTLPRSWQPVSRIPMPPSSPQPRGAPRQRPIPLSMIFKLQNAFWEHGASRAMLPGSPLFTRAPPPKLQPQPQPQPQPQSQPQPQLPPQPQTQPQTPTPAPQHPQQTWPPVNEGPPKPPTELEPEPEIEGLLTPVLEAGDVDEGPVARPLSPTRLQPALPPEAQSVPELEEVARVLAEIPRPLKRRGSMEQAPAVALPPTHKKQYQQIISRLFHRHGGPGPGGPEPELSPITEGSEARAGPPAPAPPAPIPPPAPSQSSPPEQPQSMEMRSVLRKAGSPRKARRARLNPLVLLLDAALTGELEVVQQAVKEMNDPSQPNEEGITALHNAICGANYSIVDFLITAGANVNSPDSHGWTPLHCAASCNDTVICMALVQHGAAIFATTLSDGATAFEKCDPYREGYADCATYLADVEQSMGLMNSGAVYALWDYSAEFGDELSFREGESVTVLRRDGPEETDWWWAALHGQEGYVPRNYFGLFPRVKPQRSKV
UniProt Q15173: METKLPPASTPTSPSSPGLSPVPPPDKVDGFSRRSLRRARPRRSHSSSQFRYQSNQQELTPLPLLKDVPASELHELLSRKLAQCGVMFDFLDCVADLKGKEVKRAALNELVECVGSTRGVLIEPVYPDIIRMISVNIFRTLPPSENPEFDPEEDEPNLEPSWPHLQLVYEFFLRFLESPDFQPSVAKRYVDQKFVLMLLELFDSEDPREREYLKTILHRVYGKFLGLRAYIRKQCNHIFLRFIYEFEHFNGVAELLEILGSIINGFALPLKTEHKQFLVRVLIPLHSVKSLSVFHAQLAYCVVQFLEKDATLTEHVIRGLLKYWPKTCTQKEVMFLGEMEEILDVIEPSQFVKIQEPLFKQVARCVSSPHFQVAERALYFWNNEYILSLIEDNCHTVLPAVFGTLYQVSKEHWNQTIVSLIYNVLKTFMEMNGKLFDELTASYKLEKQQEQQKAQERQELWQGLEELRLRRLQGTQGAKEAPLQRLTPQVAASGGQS

Some of the results follow.

Compound in one test: Cc1cn(-c2cc(NC(=O)c3ccc(C)c(Nc4nccc(-c5cccnc5)n4)c3)cc(C(F)(F)F)c2)cn1 [nilotinib]
The experiment in a line: log2 fold change, soluble protein after heating vs DMSO (PISA); higher = thermal stabilisation; K562 lysate, 10 uM; active = over 0.2 and 3.5 SD of the protein, either way, in both replicates (recomputed). The gist of the method: (§1)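 The values are log-two fold changes in thermal stability compared with solvent controls and come from duplicates. They were obtained by TMTpro 16plex LC-MS/MS, with channel sums equalised, on the supernatant after 21,000xg for 90 min. That supernatant came from crude K562 extract at 1 mg/mL protein treated with 10 μM compound for 30 min, heated for 3 min across 48°C-58°C, pooled and brought to 0.5% NP-40 at 4°C.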
PRKD3 (UniProt O94806): the log2 fold change was inactive: 0.054.

On to PPM1B isoform 2 (UniProt O75688), for which the log2 fold change is inactive: 0.039.

In the case of PPP1R3D (UniProt O95685), the log2 fold change is inactive: -0.034.

With PPT2, A0A140T9Y1, the log2 fold change was inactive: -0.054.

Consider PRELID1 (UniProt Q9Y255), for which the log2 fold change is inactive: -0.012.

As to PRKDC (UniProt P78527), the log2 fold change is inactive: -0.015.

Turning to PPP2CA (UniProt E7ESG8), the log2 fold change was inactive: 0.025.

Regarding PRKX (UniProt P51817), the log2 fold change was inactive: -0.038.

Consider PPP6R3 isoform 2 (UniProt Q5H9R7), for which the log2 fold change was inactive: -0.222.

For PPP1R13L (UniProt Q8WUF5), the log2 fold change was inactive: 0.179.

Compound in a further test: Cc1nc(Nc2n[nH]c3c2CN(C(=O)N[C@H](CN(C)C)c2ccccc2)C3(C)C)c2sccc2n1
The description is as above. The gist of the method: as §1
On to PRKD3 (UniProt O94806), for which the log2 fold change is inactive: -0.086.

As for PPM1B isoform 2 (UniProt O75688), the log2 fold change is inactive: -0.057.

PPP1R3D (UniProt O95685): the log2 fold change was inactive: -0.088.

For PPT2, A0A140T9Y1, the log2 fold change is inactive: 0.086.

Regarding PRELID1 (UniProt Q9Y255), the log2 fold change is inactive: -0.001.

PRKDC (UniProt P78527): the log2 fold change is inactive: -0.01.

For the target PPP2CA (UniProt E7ESG8), the log2 fold change is inactive: -0.108.

On to PRKX (UniProt P51817), for which the log2 fold change is inactive: 0.338.

As to PPP6R3 isoform 2 (UniProt Q5H9R7), the log2 fold change was inactive: -0.178.

Regarding PPP1R13L (UniProt Q8WUF5), the log2 fold change was inactive: -0.196.

Compound in the next test: Cc1nc(Nc2ncc(C(=O)Nc3c(C)cccc3Cl)s2)cc(N2CCN(CCO)CC2)n1 [dasatinib]
The description is as above. A digest of the protocol: as §1
In the case of PPM1B isoform 2 (UniProt O75688), the log2 fold change is inactive: 0.024.

Turning to PPP1R12B isoform 6 (UniProt O60237), the log2 fold change is inactive: -0.065.

Consider PRG2 (UniProt P13727), for which the log2 fold change is inactive: -0.119.

With PRMT2 (UniProt P55345), the log2 fold change was inactive: 0.141.

For PPTC7 (UniProt Q8NI37), the log2 fold change is inactive: 0.043.

PRDM2 (UniProt Q13029): the log2 fold change was inactive: 0.067.

Take PRKX (UniProt P51817): the log2 fold change is inactive: 0.134.

As to PPME1 (UniProt Q9Y570), the log2 fold change was inactive: 0.032.

For the target PPIP5K2 (UniProt H0Y9S9), the log2 fold change is inactive: -0.074.

For PRDM15 (UniProt P57071), the log2 fold change is inactive: 0.018.

For the target PROSER3, A0A2R8Y8D9, the log2 fold change is inactive: 0.052.

Consider PPP2R5B (UniProt Q15173), for which the log2 fold change is inactive: 0.018.

On to PPM1H (UniProt Q9ULR3), for which the log2 fold change was inactive: 0.

Compound in the next test: Cc1ncc(-c2ccnc(Nc3ccc(S(C)(=O)=O)cc3)n2)n1C(C)C
The description is as above. The gist of the method:
as §1
With PRKD3 (UniProt O94806), the log2 fold change is inactive: -0.03.

On to PPM1B isoform 2 (UniProt O75688), for which the log2 fold change is inactive: -0.086.

On to PPP1R3D (UniProt O95685), for which the log2 fold change is inactive: 0.129.

As to PPT2, A0A140T9Y1, the log2 fold change is inactive: 0.089.

As to PRELID1 (UniProt Q9Y255), the log2 fold change is inactive: -0.026.

For PRKDC (UniProt P78527), the log2 fold change is inactive: 0.188.

PPP2CA (UniProt E7ESG8): the log2 fold change is inactive: -0.232.

As for PRKX (UniProt P51817), the log2 fold change was inactive: 0.006.

Turning to PPP6R3 isoform 2 (UniProt Q5H9R7), the log2 fold change is inactive: 0.237.

Regarding PPP1R13L (UniProt Q8WUF5), the log2 fold change is inactive: 0.294.

Compound in the next test: Cn1cc(-c2ccc3c(c2)CCN3C(=O)Cc2cccc(C(F)(F)F)c2)c2c(N)ncnc21
Described as above. A digest of the protocol: as §1
PPM1B isoform 2 (UniProt O75688): the log2 fold change is inactive: -0.03.

Take PPP1R12B isoform 6 (UniProt O60237): the log2 fold change was inactive: 0.134.

In the case of PRG2 (UniProt P13727), the log2 fold change was inactive: -0.028.

PRMT2 (UniProt P55345): the log2 fold change was inactive: 0.133.

PRKDC (UniProt P78527): the log2 fold change was inactive: 0.038.

As for PPTC7 (UniProt Q8NI37), the log2 fold change was inactive: 0.176.

With PRDM2 (UniProt Q13029), the log2 fold change is inactive: -0.057.

Take PRKX (UniProt P51817): the log2 fold change was inactive: -0.187.

Take PPME1 (UniProt Q9Y570): the log2 fold change was inactive: -0.08.

In the case of PPIP5K2 (UniProt H0Y9S9), the log2 fold change is inactive: 0.052.

With PRDM15 (UniProt P57071), the log2 fold change is inactive: 0.334.

Consider PROSER3, A0A2R8Y8D9, for which the log2 fold change was inactive: 0.077.

With PPP2R5B (UniProt Q15173), the log2 fold change is inactive: 0.021.

As for PPM1H (UniProt Q9ULR3), the log2 fold change is inactive: 0.001.

Compound in a further test: Cn1cc(CNCC2CCN(c3ncc(C(=O)NO)cn3)CC2)c2ccccc21 [quisinostat]
Described as above. The gist of the method: as §1
With PRKD3 (UniProt O94806), the log2 fold change is inactive: -0.014.

As to PPP1R12B isoform 6 (UniProt O60237), the log2 fold change was active: -0.531.

Take PPP1R3D (UniProt O95685): the log2 fold change is inactive: -0.005.

Regarding PPP1R12C isoform 3 (UniProt Q9BZL4), the log2 fold change is inactive: -0.025.

Consider PRG2 (UniProt P13727), for which the log2 fold change is inactive: 0.061.

With PROSER3 (UniProt Q2NL68), the log2 fold change was inactive: 0.035.

For the target PRPF40B (UniProt Q6NWY9), the log2 fold change is inactive: -0.023.

Regarding PPP2R3B (UniProt Q9Y5P8), the log2 fold change is inactive: -0.058.

Turning to PRELID1 (UniProt Q9Y255), the log2 fold change was inactive: 0.113.

As for PRKDC (UniProt P78527), the log2 fold change was inactive: -0.093.

Turning to PPP1R13L (UniProt Q8WUF5), the log2 fold change was inactive: 0.003.

As to PROSER3, A0A2R8Y8D9, the log2 fold change was inactive: -0.004.

For PPP2R5B (UniProt Q15173), the log2 fold change was inactive: 0.058.

As to PPM1H (UniProt Q9ULR3), the log2 fold change is inactive: -0.036.
